Results of single-concentration screens

The values are deposited in ChEMBL (CHEMBL3988442, “University of Dundee, Small-Polar-MMV Screening Library” (2021)).

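Growth of Mycobacterium tuberculosis over 3 days (7H9 medium with glucose and tyloxapol); the read-out is not stated. Compounds at 50 µM. The record gives no direction; compounds that gave an IC50 in retests scored well above the rest, so higher reads as more growth inhibition. Of about 69,000 compounds tested this way, about 760 (1.1%) reached 50% or more in at least one test.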

The filed quantity is “Percent Effect” (%). How 0% and 100% were set is not recorded. Most values in the screen are low, and negative values occur. This is an unselected part of the compounds tested. Two or more numbers in one place are separate tests of the same structure; such repeats can differ widely.

structure	Percent Effect
CNS(=O)(=O)c1cccc(C(C)NCc2ccco2)c1 (centres undefined)	-3.125 & -6.059
N#Cc1cccc(OCCN2CCCC2C(=O)N2CCSCC2)c1 (centres undefined)	31.86
CCN(CC(=O)NC(C)(C)C)Cc1cccc2c1OCCO2	10.86 & 2.279
COCCN1CCC(NCc2c(F)cccc2F)C1 (centres undefined)	-1.865
O=C(COCC(=O)N(c1ccccc1)c1ccccc1)N1CCOCC1	2.596 & 29.28
CC[C@@H](c1ccccc1)n1c(CN)n[nH]c1=O	12.36
O=C1CC(c2ccc(C(=O)O)cc2)c2ncn(-c3ccc(Cl)cc3)c2N1 (centres undefined)	-34.72
Cc1cnn(CC2CCCN2CC(=O)Nc2nccs2)c1 (centres undefined)	16.59
CN1C(=O)C2(CCN(c3nccc4occc34)CC2)c2ccccc21	6.77
CCc1cnc(NCCSc2cnn[nH]2)nc1	-69.54
CC(Nc1cccc(CN2CCOC2=O)c1)C(=O)N1CCNC1=O (centres undefined)	-9.181
CC(C)c1nc(C2CCCN(c3cnc4ccccc4n3)C2)no1 (centres undefined)	33.9
[H][C@@]12CCN(C(=O)c3cscn3)C[C@@]1([H])O[C@H](c1ccncn1)C2	-28.39
CN1CC2(COCCN(C(=O)c3ccco3)C2)OCC1=O (centres undefined)	-17.67
O=C(O)C(F)(F)F.[H][C@]12C[C@@H](Cn3cncn3)N(CC3CC3)[C@@]1([H])CCN(S(C)(=O)=O)C2	-3.233
O=C(Nc1nc2c(s1)CCC2)c1cccnc1N1CCOCC1	-4.515 & 7.125
CC(=O)Nc1ccc(/C=C/c2ncc(C(=O)O)s2)cc1	-11.28
COc1cccc(-c2nc3c([nH]2)CCNC3)c1F	-12.26
CC(NC(=O)CCS(=O)(=O)C1CCCC1)c1nc(-c2ccccc2)c[nH]1 (centres undefined)	-4.756
Cc1cccc(NC2CCN(C(=O)Nc3ccc(F)cc3C)CC2)n1	-1.745 & -17.84
N#Cc1ccc(NCc2cccc(OCC3CCCO3)c2)nc1 (centres undefined)	34.32
Cc1csc(CNC(=O)N2CCCC(c3nncn3C)C2)n1 (centres undefined)	19.9
CC(C)(C)c1n[nH]c(C2CN(C(=O)c3cc(C4CC4)[nH]n3)CCO2)n1 (centres undefined)	5.588
O=C(c1cnn(-c2ccccc2)n1)N1CCCC(n2cccn2)C1 (centres undefined)	9.629
Cc1ccc2oc(C(=O)N3CCCC(n4nc(C)cc4C)C3)cc2n1 (centres undefined)	-24.5
c1nc2c(c(N3CCOC(Cn4cncn4)C3)n1)CCC2 (centres undefined)	-1.978 & 9.557
Cn1cnnc1C1CCCN(C(=O)NCCc2ccccn2)C1 (centres undefined)	14.08
COCc1c(C(=O)N2CCCC(C(=O)c3nccn3C)C2)noc1C (centres undefined)	-16.91
O=C(CN1CCc2cncnc2C1)NCCOc1cccc(Cl)c1	7.317
COC(=O)[C@H](C)NC(=O)Cn1ccc2ccc(F)cc21	0.8676 & 6.734
CCOC(=O)CN1CCC(C(=O)c2cc(F)ccc2F)CC1	-15.17
CC(C)c1nc2c(n1C)CCN(CCc1ccccn1)C2	7.599
CNc1nc2c(s1)C(=O)CN(C(=O)[C@@H](N)Cc1cccc(OC)c1)C2	-5.354
CC(CN1CCOCC1)N(Cc1ccccc1)Cc1ccncc1 (centres undefined)	-7.484 & 1.273
O=C(N[C@@H]1CCN(c2nccc3ccccc23)C[C@H]1O)c1cnccn1	-20.03
CC(C)Nc1nc2c(c(N(C)C)n1)CCN(C(=O)c1cc[nH]n1)CC2	30.61 & 33.16
CCN1CCN(C[C@@H]2CN(c3ncccc3C(F)(F)F)C[C@@H]2CO)CC1	-1.109
Cc1ncccc1CNCC1CCCN1c1cccnn1 (centres undefined)	-2.191
COc1ccc2[nH]cc(C3CCN(CCC(N)=O)CC3)c2c1	-16.07
CC(=O)N(Cc1ncc(C(C)C)o1)C1CCN(Cc2ncc[nH]2)C1 (centres undefined)	-1.922
CN1CC(Oc2ccccc2)=NC(SCC(=O)Nc2ccccc2Cl)=N1	-16.47
O=C(O)C(F)(F)F.[H][C@@]12CCN(C(=O)c3ccccn3)[C@]1([H])CCC(=O)N2Cc1csc(C)n1	-12.15
O=C1CCc2cc(S(=O)(=O)NCc3cc4n(n3)CCCNC4)ccc2N1	-7.425 & -4.896
[H][C@@]12CN(C(=O)C3CCOC3)C[C@@]1([H])N(CC(C)C)C(=O)CO2 (some centres undefined)	-85.66
Cc1ccc(CC(=O)NC(C)C(=O)N2CCS(=O)(=O)CC2)cc1 (centres undefined)	1.549

Once more, the final 3:

| structure | Percent Effect |
|---|---|
| `O=C1CCc2cc(S(=O)(=O)NCc3cc4n(n3)CCCNC4)ccc2N1` | -7.425 & -4.896 |
| `[H][C@@]12CN(C(=O)C3CCOC3)C[C@@]1([H])N(CC(C)C)C(=O)CO2` (some centres undefined) | -85.66 |
| `Cc1ccc(CC(=O)NC(C)C(=O)N2CCS(=O)(=O)CC2)cc1` (centres undefined) | 1.549 |